Experimental data published in paper PMC4513098, “Ordered Regions of Channel Nucleoporins Nup62, Nup54, and Nup58 Form Dynamic Complexes in Solution*” (The Journal of Biological Chemistry, 2015).

Biological target: His6-tagged Nup58, C-terminal segment of the ordered region (cognate for Nup54) (Rattus norvegicus)
Assay: pull-down; deletion constructs of the three channel nups co-expressed; complexes purified by affinity pulldown via the His6 tag of Nup58; eluates analysed by SDS-PAGE

B1: Nup54(346–510), entire ordered region of Nup54 from Rattus norvegicus (domain or fragment, UniProt P70582 346-510)
chain: MTKQHQTRLDIISEDISELQKNQTTTMAKIAQYKRKLMDLSHRTLQVLIKQEIQRKSGYAIQAEEEQLRVQLDTIQGELNAPTQFKGRLNELMSQIRMQNHFGAVKSEEKYYIDADLLREIKQHLKQQQEGLSHLISIIKDDLEDIKLVEHGLNETIHSRGGVFS
In the case of B1, the binding is reported as “binds”.

Results are given in words; binding and its absence hold for the method and conditions named. In cells and extracts the contact can be indirect. A result given as binding can be weak or reduced; the word gives no strength.
